Percent effect of library compounds

By UniProt entry, the sequences of proteins in these tests, tags left out. Residues count along the entry.
UniProt Q8IDJ8, 1-583: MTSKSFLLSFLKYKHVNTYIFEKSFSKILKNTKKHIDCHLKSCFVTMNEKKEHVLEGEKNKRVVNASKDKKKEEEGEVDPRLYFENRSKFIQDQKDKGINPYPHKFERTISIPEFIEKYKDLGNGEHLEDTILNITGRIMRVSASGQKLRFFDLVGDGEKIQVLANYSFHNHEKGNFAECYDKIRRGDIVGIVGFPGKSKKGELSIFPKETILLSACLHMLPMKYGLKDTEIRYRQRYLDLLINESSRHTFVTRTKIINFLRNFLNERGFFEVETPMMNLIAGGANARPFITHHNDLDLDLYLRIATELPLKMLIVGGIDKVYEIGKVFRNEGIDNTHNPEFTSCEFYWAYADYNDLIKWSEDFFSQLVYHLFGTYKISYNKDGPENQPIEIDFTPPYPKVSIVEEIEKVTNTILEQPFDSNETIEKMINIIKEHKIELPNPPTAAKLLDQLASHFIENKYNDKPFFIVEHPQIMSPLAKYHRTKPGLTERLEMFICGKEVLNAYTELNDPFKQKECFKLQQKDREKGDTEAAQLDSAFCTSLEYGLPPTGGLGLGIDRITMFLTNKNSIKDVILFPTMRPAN
UniProt A4I591, 1-473: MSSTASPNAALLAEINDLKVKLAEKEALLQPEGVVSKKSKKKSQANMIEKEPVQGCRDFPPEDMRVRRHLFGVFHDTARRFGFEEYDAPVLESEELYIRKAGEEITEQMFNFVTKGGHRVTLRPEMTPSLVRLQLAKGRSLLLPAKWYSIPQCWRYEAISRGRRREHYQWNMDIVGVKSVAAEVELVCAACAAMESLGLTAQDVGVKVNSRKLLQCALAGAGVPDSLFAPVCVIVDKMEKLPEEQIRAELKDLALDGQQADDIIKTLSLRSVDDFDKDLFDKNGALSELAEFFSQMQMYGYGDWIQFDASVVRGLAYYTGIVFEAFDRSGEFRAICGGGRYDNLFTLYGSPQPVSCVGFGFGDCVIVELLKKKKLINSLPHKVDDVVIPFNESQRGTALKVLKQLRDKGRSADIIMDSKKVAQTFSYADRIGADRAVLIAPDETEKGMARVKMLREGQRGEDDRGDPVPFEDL
UniProt Q4DA54, 1-478: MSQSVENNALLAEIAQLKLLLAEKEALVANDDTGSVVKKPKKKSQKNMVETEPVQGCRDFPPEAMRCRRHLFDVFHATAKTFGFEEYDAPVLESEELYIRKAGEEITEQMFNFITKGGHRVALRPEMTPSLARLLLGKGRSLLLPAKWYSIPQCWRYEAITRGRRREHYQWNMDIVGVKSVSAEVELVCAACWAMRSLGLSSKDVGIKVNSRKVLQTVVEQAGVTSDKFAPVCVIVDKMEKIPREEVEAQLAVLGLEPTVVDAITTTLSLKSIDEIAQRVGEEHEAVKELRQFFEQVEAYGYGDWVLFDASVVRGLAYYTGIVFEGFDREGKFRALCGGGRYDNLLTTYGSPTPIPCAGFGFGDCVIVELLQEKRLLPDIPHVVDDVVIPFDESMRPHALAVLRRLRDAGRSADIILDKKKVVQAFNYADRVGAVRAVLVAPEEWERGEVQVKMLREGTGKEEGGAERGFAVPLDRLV
UniProt P9WPC5, whole entry: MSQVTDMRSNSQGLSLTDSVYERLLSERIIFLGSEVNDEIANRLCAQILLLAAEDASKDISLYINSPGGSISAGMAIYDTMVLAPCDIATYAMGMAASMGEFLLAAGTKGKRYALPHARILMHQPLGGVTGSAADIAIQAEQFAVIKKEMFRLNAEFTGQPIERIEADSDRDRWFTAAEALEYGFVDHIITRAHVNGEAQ
UniProt P9WPC3, whole entry partner: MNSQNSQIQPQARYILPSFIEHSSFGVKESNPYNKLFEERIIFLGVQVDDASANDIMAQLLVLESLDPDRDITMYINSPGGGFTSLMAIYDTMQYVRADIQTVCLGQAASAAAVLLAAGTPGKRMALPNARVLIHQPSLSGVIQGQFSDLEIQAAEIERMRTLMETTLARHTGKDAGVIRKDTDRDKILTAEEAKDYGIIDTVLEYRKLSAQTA

Results are given as percent effect. The record does not define 0% and 100%; most values in the screen are far below 50% and negative numbers occur (in some assays of this library far below -100). The compounds are a random part of those screened. Two or more numbers in one place are separate tests of the same structure; such repeats can differ widely.

A: 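Lysine-tRNA ligase, Plasmodium falciparum 3D7 (UniProt Q8IDJ8). Enzyme assay of the cytosolic lysyl-tRNA synthetase in 384-well plates, read by luminescence. Compounds at 30 µM. Direction is inferred from only a few compounds that gave an IC50; most scored high, so higher reads as stronger inhibition. About 69,000 compounds were tested under these conditions; 0.071% (about 49) showed 50% or more at least once.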
B: 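Enzyme assay of histidyl-tRNA synthetase; the read-out is not stated. Target: Histidine-tRNA ligase, Leishmania infantum (UniProt A4I591). Tested at 30 µM. Higher reads as stronger inhibition (inferred: compounds with an IC50 in retests scored well above the rest). The assay is labelled LdHisRS but filed under L. infantum. About 69,000 compounds were tested under these conditions; 0.6% (about 410) showed 50% or more at least once.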
C: 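Histidine-tRNA ligase, Trypanosoma cruzi CL Brener (UniProt Q4DA54). Enzyme assay of histidyl-tRNA synthetase; the read-out is not stated. Compounds at 30 µM. The record gives no direction; compounds that gave an IC50 in retests scored well above the rest, so higher reads as stronger inhibition. About 69,000 compounds were tested under these conditions; 0.045% (about 31) showed 50% or more at least once.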
D: 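Cell assay of Leishmania donovani living inside macrophages; the read-out is not stated. Concentration: 30 µM. The record gives no direction; compounds that gave an IC50 in retests scored well above the rest, so higher reads as stronger inhibition. Of about 69,000 compounds tested this way, about 1,000 (1.5%) reached 50% or more in at least one test.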
E: 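Protease assay of ClpP1P2, read by the AMC dye that it sets free. Target: ClpP1P2, Mycobacterium tuberculosis (UniProt P9WPC5 and UniProt P9WPC3). Compounds at 50 µM. Direction is inferred from only a few compounds that gave an IC50; most scored high, so higher reads as stronger inhibition. Most other retested compounds had strongly negative values. Of about 69,000 compounds tested this way, about 10 (0.015%) reached 50% or more in at least one test.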

- CCN1CCOC(CNc2nccc(C(F)(F)F)n2)C1 (centres unmarked) | A: -0.6061%; B: 11.43%; C: 5.155%; D: 18.91%; E: 3.287%
- CCOCCCn1c(NC(=O)c2cnc(C)cn2)nc2ccccc21 | A: 1.923%; B: 11.54%; C: 2.286%; D: 12.1%; E: -11.59%
- c1[nH]c(CC2CCCC2)nc1CN1CCCC2(CCOC2)C1 (centres unmarked) | A: 2.302%; B: 22.86%; C: 10.39%; D: 19.21%; E: -1.036%
- Cn1ccc(N2CCCC(NC(=O)c3ccsc3)C2=O)n1 (centres unmarked) | A: 2.749%; B: 17.65%; C: 12.35%; D: -2.53%; E: -16.76%
- O=C1CCC2(CCOC2)CN1Cc1ccc2nsnc2c1 (centres unmarked) | A: 6.391%; B: 10.67%; C: 7.065%; D: -7.97%; E: -5.895%
- Fc1cccc(Nc2nc(N3CCCC3)nc3c2CNCC3)c1 | A: 1.046%; B: 11.27%; C: 10%; D: 99.78%; E: -21.66%
- CC(C(=O)N1CCN(Cc2ccc(C#N)cc2)CC1)n1ccnc1 (centres unmarked) | A: -1.029%; B: 10.71%; C: 5.325%; D: 9.595%; E: -19.03%
- O=C(O)C(F)(F)F.[H][C@]12CCN(CC(C)C)CC[C@@]1([H])S(=O)(=O)CCN2C(C)=O | D: 25.49%
- CCc1nncn1CCNC(=O)N1CCCC(Cc2nccn2C)C1 (centres unmarked) | A: -4.476%; B: -8.235%; C: 4.036%; D: 4.181%; E: -8.092%
- CCCOCC(=O)N1CCc2c(cccc2S(=O)(=O)N2CCOCC2)C1 | A: -0.484%; B: 14.52%; C: -0.8772%; D: -6.187%; E: -17.77%
- COc1nn(C)cc1C(=O)NCC(=O)Nc1cccnc1 | A: 3.429%; B: 12.17%; C: 4.124%; D: 3.74% and 5.86%; E: -4.018%
- CC(=O)N(Cc1noc(C2CC2)n1)C1CCN(Cc2cccnc2)C1 (centres unmarked) | A: 6.976%; B: 18.46%; C: 2.682%; D: 24.41%; E: 11.18%
- Cc1nc(C)n(CC2CN(CCCc3ccccc3)CCO2)n1 (centres unmarked) | A: 5.799%; B: 19.35%; C: 8.247%; D: 13.78%; E: -9.834%
- c1csc(CN2CCCN(c3ncnc4[nH]ccc34)CC2)c1 | A: 18.73%; B: 12.99%; C: 1.212%; D: 19.36%; E: -19.31%
- O=C(Nc1cccc(CNCc2cccs2)c1)C1CCCC1 | A: 0.1436%; B: 16.67%; C: 0%; D: 27.2%; E: 4.927%
- CC(=O)N1CCOC2(CCN(C(=O)c3cnoc3C)CC2)C1 | A: 0.1187%; B: 3.922%; C: 0.5464%; D: 18.47%; E: 0.5979%
- O=C(O)C(F)(F)F.[H][C@@]12CN(Cc3ccoc3)CCO[C@]1([H])CN(S(=O)(=O)CCC)C2 | D: 15.12%
- CCOC1CCCN(C(=O)Nc2cnn(CC(F)F)c2)C1 (centres unmarked) | A: 2.485%; B: -18.97%; C: 2.618%; D: -10.11%; E: -13.09%
- [H][C@]12CC[C@@]3(N=C(c4ccccc4)NC3=O)[C@@]1([H])CN(C(=O)NC)C2 | D: 12.93%
- NC(=O)C1CN(C(=O)Nc2ccccc2-c2cccs2)CCO1 (centres unmarked) | A: -0.09965%; B: -21.54%; C: -1.149%; D: -2.699%; E: 8.647%
- COCCCNC(=O)c1c(-n2cnnn2)sc2c1CCC2 | A: 7.719%; B: 12.5%; C: -2.484%; D: 9.721%; E: -16.85%
- O=C(C1CCOC1)N1CCC(Cn2cc(-c3ccsc3)nn2)CC1 (centres unmarked) | A: 0.9232%; B: 3.279%; C: 3.488%; D: -3.879%; E: 0.5723%
- Cn1c(=O)ccn(CC(=O)N2CCCC(n3cccn3)C2)c1=O (centres unmarked) | A: 4.891%; B: 7.018%; C: 7.563%; D: 16.57%; E: 6.246%
- Cc1nc[nH]c1CN1C[C@@H]2CC[C@H](C1)N(C(=O)CCc1cccnc1)C2 | A: 5.616%; B: 16.05%; C: 4.911%; E: -21.8%
- CC1CCCN(c2ncc(C(=O)NCc3ccc(F)c(Cl)c3)c(N)n2)C1 (centres unmarked) | A: 3.215%; B: 21.74%; C: 18.81%; D: -45.59%; E: 6.997%
- Fc1ccc(-c2nc(CN3CCOC(Cn4cccn4)C3)co2)cc1 (centres unmarked) | A: 0.9367%; B: 8.772%; C: 2.006%; D: 24.39%; E: 4.676%
- C[C@]1(O)CCN(Cc2ncccc2F)C[C@@H]1Oc1cccc(F)c1 | A: 2.553%; B: 11.72%; C: 7.605%; D: 23.14%; E: -6.706%
- CS(=O)(=O)N1CCC(Nc2ccnc3ccc(Cl)cc23)CC1 | A: 4.048%; B: -364.4%; C: 4.762%; D: -155.1%; E: -1.55%
- Cc1cccc(C)c1OC1CN(C(=O)C2CC(=O)N(C(C)(C)C)C2)C1 (centres unmarked) | A: 3.921%; B: 13.27%; C: 8.8%; D: 48.27%; E: 2.503%

Data taken from ChEMBL document CHEMBL3988442, “University of Dundee, Small-Polar-MMV Screening Library” (2021).